Results are given in words; binding and its absence hold for the method and conditions named. In cells and extracts the contact can be indirect. Some binding calls cover weakened binding; strength is not graded here. Where a sequence is shown, tags or fusion partners need not be part of it.
Assays:
Flag-TARBP2-K52R (human) = molecular target: T1, Flag-TARBP2-K52R (human) (UniProt Q15633); experiment: co-IP; 293T cells transfected with Flag-TARBP2-WT or -K52R with or without the partner's plasmid; lysates IP with anti-Flag antibody, western blot; in Fig. 7c cells treated with 100 uM H2O2 for 3 h before harvest
T1 sequence: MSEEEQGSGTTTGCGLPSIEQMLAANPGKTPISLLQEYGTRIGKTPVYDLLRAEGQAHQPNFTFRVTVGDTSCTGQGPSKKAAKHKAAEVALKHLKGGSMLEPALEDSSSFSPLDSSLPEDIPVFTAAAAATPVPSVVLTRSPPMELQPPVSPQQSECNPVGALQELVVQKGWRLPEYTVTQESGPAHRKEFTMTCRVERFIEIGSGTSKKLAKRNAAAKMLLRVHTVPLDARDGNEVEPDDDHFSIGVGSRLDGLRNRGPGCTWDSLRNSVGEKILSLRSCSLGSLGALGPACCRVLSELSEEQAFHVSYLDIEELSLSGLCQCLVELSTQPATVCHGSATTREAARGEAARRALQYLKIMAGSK

Flag-TARBP2-WT (human) = Flag-TARBP2-WT (human) (UniProt Q15633); experiment: as above

B1: GFP-KSRP (protein, UniProt Q92945 1-711)
chain: MSDYSTGGPPPGPPPPAGGGGGAGGAGGGPPPGPPGAGDRGGGGPGGGGPGGGSAGGPSQPPGGGGPGIRKDAFADAVQRARQIAAKIGGDAATTVNNSTPDFGFGGQKRQLEDGDQPESKKLASQGDSISSQLGPIHPPPRTSMTEEYRVPDGMVGLIIGRGGEQINKIQQDSGCKVQISPDSGGLPERSVSLTGAPESVQKAKMMLDDIVSRGRGGPPGQFHDNANGGQNGTVQEIMIPAGKAGLVIGKGGETIKQLQERAGVKMILIQDGSQNTNVDKPLRIIGDPYKVQQACEMVMDILRERDQGGFGDRNEYGSRIGGGIDVPVPRHSVGVVIGRSGEMIKKIQNDAGVRIQFKQDDGTGPEKIAHIMGPPDRCEHAARIINDLLQSLRSGPPGPPGGPGMPPGGRGRGRGQGNWGPPGGEMTFSIPTHKCGLVIGRGGENVKAINQQTGAFVEISRQLPPNGDPNFKLFIIRGSPQQIDHAKQLIEEKIEGPLCPVGPGPGGPGPAGPMGPFNPGPFNQGPPGAPPHAGGPPPHQYPPQGWGNTYPQWQPPAPHDPSKAAAAAADPNAAWAAYYSHYYQQPPGPVPGPAPAPAAPPAQGEPPQPPPTGQSDYTKAWEEYYKKIGQQPQQPGAPPQQDYTKAWEEYYKKQAQVATGGGPGAPPGSQPDYSAAWAEYYRQQAAYYGQTPGPGGPQPPPTQQGQQQAQ
Which results are given for B1?
binding (Flag-TARBP2-K52R (human)): binds; binding (Flag-TARBP2-WT (human)): binds
